# Results of single-concentration screens

From ChEMBL document CHEMBL3988442, “University of Dundee, Small-Polar-MMV Screening Library” (2021).

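Whole-parasite assay of Trypanosoma brucei over 72 hours; the read-out is not stated. Compounds at 30 µM. Higher reads as stronger inhibition (inferred: compounds with an IC50 in retests scored well above the rest). Values scatter widely below zero; nearly all retest evidence comes from the higher of the two concentrations used. Size under these conditions: about 64,000 compounds, about 940 of them at 50% or above in at least one test.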

Each number is a percent effect as filed. The controls that fix the scale are not given in the record; negative values are as filed. The compounds are a random part of those screened.

compound,percent effect
CNS(=O)(=O)c1ccc(CN2CCC(c3ccncc3)CC2)cc1,-9.638%
CS(=O)(=O)CCn1ccc(NC(=O)Cc2ccccc2Cl)n1,-3.266%
CCn1c(N)nc2cc(C(=O)NCc3cccc(C)c3C)cnc21,-78.07%
CC(C)(C)OC(=O)NC(C)(C)c1noc(Cn2ccnc2)n1,11%
COc1ncccc1C(=O)N1CCCC1c1c(C)n[nH]c1C (centres unmarked),-10.55%
CC(NC1CCSCC1)c1ccccc1-n1cccn1 (centres unmarked),-5.385%
Cc1ccc(-c2nc(CN3CCC(C(=O)N(C)C)CC3)cs2)o1,-3.643%
COc1ccc(CN(C(=O)CCC(C)C)c2cnn(C)c2)c(OC)c1,2.715%
CN1CC(=O)N(c2ccsc2)CC12CCN(S(=O)(=O)c1ccccc1)C2.O=C(O)C(F)(F)F (centres unmarked),-41.58%
COCCC(=O)N1CCN(CC2CC2)c2nc(C)ccc2C1.O=C(O)C(F)(F)F,-58.18%
Cc1ccc(O)c(C(=O)N2CCC(CN3CCCCCC3)CC2)c1,-7.628%
COCc1cc(C[C@@H]2CC[C@H](O)[C@@H](CN(CC(C)C)CC(C)C)O2)no1,-7.537%
O=C(CN1CCCC(c2ccc(C(=O)O)cc2)C1)NC1CC1 (centres unmarked),38.49%
COCCCNC(=O)CN(C)C(=O)CN(C)c1ccc(C#N)cn1,-22%
c1csc(-c2noc(CN3CCCCC3Cn3cccn3)n2)c1 (centres unmarked),-11.88%
O=C(c1cccc2c1OCCO2)N1CCCC1Cn1cccn1 (centres unmarked),7.743%
O=C(CC1=CCCCC1)NCc1ccnc(OC2CCOCC2)c1,9.712%
CCc1ncc2c(n1)CN(Cc1cnc(C)cn1)CC2,-26.19%
[H][C@]12CC[C@]([H])(CN(C(=O)c3ccccn3)C1)N(C(=O)OC(C)C)C2,-49%
Cc1nc(S(=O)(=O)CCn2cccn2)n(C2CCCC2)c1C,-12.66%
CCN(Cc1nc(COC)no1)Cc1cc2ccc(F)cc2[nH]c1=O,22.97%
CC(c1nc(C2CC2)no1)N1CCN(CCS(C)(=O)=O)CC1 (centres unmarked),11.72%
COC(=O)C(c1cc(F)ccc1F)N(C)C(=O)c1cnccn1 (centres unmarked),-13.79%
CS(=O)(=O)CCn1ccc(NC(=O)Cc2ccccc2F)n1,-2.37%
COc1ccc(-c2ccc(C3CNCCO3)nc2)cc1.Cl (centres unmarked),-17.4%
Cc1ncc(CN2CCc3nc4cc(C(C)(C)C)nn4c(O)c3C2)n1C,-41.11%
O=C(Cc1ccc2c(c1)CCCC2)NCCc1ccccn1,28.4%
O=C(O)C(F)(F)F.O=C(O)C(F)(F)F.O=C(O)C(F)(F)F.[H][C@@]12OCCN(Cc3ccccn3)[C@@]1([H])CC[C@H]2OCCN1CCCC1,33.19%
O=C(O)C(F)(F)F.[H][C@@]12COC[C@H](C(=O)NCc3ccco3)[C@]1([H])CN(Cc1ccoc1)C2,-415.8%
Cc1ccc(N2CCN(CC3CC3)C3(CCN(C(C)C)CC3)C2=O)cn1.O=C(O)C(F)(F)F,-50.84%
N[C@@H]1c2ccccc2C2(CCN(c3cc(C(F)(F)F)ccn3)CC2)[C@H]1O,-47.17%
CCN1CCN(c2ccc(C(=O)NCCOC)cc2F)CC1,-69.96%
CN1CCC(N(Cc2ccco2)S(=O)(=O)c2cc(Br)ccc2Br)CC1,14.64%
COc1ccc(-c2nnc([C@H]3CCN(C4CCC4)C3)o2)cc1,5.178%
CC1COc2ccccc2N1C(=O)c1cscn1 (centres unmarked),-12.97%
Cc1ccc(OC2(C(=O)O)CCN(C(=O)CCc3ccco3)CC2)cc1,-15.23%
Cc1nc(CNC(C(=O)N2CCOCC2)C(C)C)oc1C (centres unmarked),-40.25%
CCCc1ccc2oc(C(=O)N3CCN(CCOC)CC3)c(C)c2c1,-56.05%
[H][C@]12CN(C(=O)C3CC3)CCN1C[C@H](c1ccccc1)[C@H]2C(=O)OCC,-41.45%
Cc1noc(C(C)C)c1C(=O)NCC(c1cccc(F)c1)N(C)C (centres unmarked),-40.5%
CCn1c(C)nc2cc(NC(=O)C3CN(C(C)=O)C3)ccc21,-19.38%
COc1nc(C)c(C(=O)N2CCc3[nH]nc(Cc4ccccc4)c3C2)s1,-21.24%
COc1ncnc(N(C)C)c1NC(=O)Cc1c[nH]c2ccc(F)cc12,8.438%
CN(C)Cc1ccccc1NC(=O)c1ccc(C#N)cc1,-16.68%
Cc1nn(C)c(N(C)C)c1CNCCC(=O)NC1CCCC1,-10.7%
[H][C@]12CCCN(c3ncc(C)cn3)[C@@]1([H])CN(C(C)=O)C2,-15.36%
Cc1cnc(N2CCC3(C2)CN(S(=O)(=O)C2CC2)C3)nc1,-16.05%
COc1c(C2CCCN2C(=O)c2cscn2)c(C)nn1C (centres unmarked),-31%
O=C(NCCC1CCCCO1)c1cc(COc2cncc(Cl)c2)on1 (centres unmarked),-7.077%
CC(=O)c1cc(C(=O)NC2(c3ccc(Br)cc3)CC2)n(C)c1,-15.25%
O=C(NCc1ccon1)c1c(F)cc(Br)cc1F,-9.116%
Cl.O=C(CCn1c(C(F)(F)F)cc2cccnc21)N1CCCC1,-28.13%
O=C(Cn1cc(C(=O)O)ccc1=O)NCc1ccc(F)cc1Cl,-49.8%
NC(=O)N1CCc2ncc(CNC(=O)CC3CC3)n2CC1,-21.05%
O=C(Cn1cc(C2CC2)nn1)N(Cc1ccco1)CC1CCCO1 (centres unmarked),-2.04%
CC1CCN(c2ncc(-c3ccccc3F)c(-c3nccn3C)n2)CC1,-17.23%
CCOC1COC2(CCN(Cc3ccc4c(c3)OCO4)CC2)C1 (centres unmarked),5.27%
Cc1cccc(CN(Cc2ccc(C)o2)C2CC(C)(C)NC(C)(C)C2)n1.O=C(O)CC(O)(CC(=O)O)C(=O)O,14.76%
O=C1CN(C(=O)CCn2c(C(F)(F)F)cc3cccnc32)CCN1,3.289%
COC(=O)CCNC(=O)c1nnn(-c2ccccc2)c1C(F)(F)F,-0.8388%
CCc1cc(NCC(N)=O)nc(N2CCCCC2)n1,-8.81%
COc1ccnc(CN(C)C(=O)CSc2nnc(N)s2)c1,-22.53%
O=C(NCCOCCO)c1cnc(-c2ccccc2)nc1O,-35.5%
O=C(CCC(=O)Nc1nnc(C(F)(F)F)s1)NCC1CCCO1 (centres unmarked),-23.32%
OCCn1nnnc1Cc1ccc(Br)cc1,-33.66%
COC1COC2(CCN(Cc3ccc4c(c3)OCO4)CC2)C1.O=C(O)C(F)(F)F (centres unmarked),-15.29%

The last 8 entries again:

| compound | percent effect |
|---|---|
| `O=C1CN(C(=O)CCn2c(C(F)(F)F)cc3cccnc32)CCN1` | 3.289% |
| `COC(=O)CCNC(=O)c1nnn(-c2ccccc2)c1C(F)(F)F` | -0.8388% |
| `CCc1cc(NCC(N)=O)nc(N2CCCCC2)n1` | -8.81% |
| `COc1ccnc(CN(C)C(=O)CSc2nnc(N)s2)c1` | -22.53% |
| `O=C(NCCOCCO)c1cnc(-c2ccccc2)nc1O` | -35.5% |
| `O=C(CCC(=O)Nc1nnc(C(F)(F)F)s1)NCC1CCCO1` (centres unmarked) | -23.32% |
| `OCCn1nnnc1Cc1ccc(Br)cc1` | -33.66% |
| `COC1COC2(CCN(Cc3ccc4c(c3)OCO4)CC2)C1.O=C(O)C(F)(F)F` (centres unmarked) | -15.29% |